In publication PMC6499807:
Results are given in words; binding and its absence hold for the method and conditions named. Binding seen in cells or lysates may run through a third protein. Some binding calls cover weakened binding; strength is not graded here.

Protein sequences, listed by entry. Tags and fused reporters are not part of them.
UniProt P40763: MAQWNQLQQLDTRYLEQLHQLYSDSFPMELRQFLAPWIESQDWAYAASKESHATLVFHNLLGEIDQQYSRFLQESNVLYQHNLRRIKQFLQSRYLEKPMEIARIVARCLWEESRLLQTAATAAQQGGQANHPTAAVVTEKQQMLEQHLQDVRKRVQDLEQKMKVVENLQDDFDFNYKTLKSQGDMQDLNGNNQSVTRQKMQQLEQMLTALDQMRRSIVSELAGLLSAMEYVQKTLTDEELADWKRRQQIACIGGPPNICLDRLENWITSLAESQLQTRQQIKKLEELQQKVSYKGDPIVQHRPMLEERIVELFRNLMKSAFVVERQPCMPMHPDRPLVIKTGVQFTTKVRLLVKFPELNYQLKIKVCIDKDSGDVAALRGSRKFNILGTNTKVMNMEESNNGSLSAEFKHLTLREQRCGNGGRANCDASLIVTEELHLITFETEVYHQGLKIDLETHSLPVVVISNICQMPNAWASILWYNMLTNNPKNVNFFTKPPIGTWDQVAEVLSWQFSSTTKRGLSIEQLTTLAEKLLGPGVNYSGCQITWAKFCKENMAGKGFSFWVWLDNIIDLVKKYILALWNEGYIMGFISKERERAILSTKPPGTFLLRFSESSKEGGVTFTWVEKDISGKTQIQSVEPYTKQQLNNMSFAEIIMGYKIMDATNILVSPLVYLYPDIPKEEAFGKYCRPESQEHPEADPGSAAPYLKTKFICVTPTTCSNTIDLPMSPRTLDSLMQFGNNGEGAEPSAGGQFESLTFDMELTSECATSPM
UniProt Q09472: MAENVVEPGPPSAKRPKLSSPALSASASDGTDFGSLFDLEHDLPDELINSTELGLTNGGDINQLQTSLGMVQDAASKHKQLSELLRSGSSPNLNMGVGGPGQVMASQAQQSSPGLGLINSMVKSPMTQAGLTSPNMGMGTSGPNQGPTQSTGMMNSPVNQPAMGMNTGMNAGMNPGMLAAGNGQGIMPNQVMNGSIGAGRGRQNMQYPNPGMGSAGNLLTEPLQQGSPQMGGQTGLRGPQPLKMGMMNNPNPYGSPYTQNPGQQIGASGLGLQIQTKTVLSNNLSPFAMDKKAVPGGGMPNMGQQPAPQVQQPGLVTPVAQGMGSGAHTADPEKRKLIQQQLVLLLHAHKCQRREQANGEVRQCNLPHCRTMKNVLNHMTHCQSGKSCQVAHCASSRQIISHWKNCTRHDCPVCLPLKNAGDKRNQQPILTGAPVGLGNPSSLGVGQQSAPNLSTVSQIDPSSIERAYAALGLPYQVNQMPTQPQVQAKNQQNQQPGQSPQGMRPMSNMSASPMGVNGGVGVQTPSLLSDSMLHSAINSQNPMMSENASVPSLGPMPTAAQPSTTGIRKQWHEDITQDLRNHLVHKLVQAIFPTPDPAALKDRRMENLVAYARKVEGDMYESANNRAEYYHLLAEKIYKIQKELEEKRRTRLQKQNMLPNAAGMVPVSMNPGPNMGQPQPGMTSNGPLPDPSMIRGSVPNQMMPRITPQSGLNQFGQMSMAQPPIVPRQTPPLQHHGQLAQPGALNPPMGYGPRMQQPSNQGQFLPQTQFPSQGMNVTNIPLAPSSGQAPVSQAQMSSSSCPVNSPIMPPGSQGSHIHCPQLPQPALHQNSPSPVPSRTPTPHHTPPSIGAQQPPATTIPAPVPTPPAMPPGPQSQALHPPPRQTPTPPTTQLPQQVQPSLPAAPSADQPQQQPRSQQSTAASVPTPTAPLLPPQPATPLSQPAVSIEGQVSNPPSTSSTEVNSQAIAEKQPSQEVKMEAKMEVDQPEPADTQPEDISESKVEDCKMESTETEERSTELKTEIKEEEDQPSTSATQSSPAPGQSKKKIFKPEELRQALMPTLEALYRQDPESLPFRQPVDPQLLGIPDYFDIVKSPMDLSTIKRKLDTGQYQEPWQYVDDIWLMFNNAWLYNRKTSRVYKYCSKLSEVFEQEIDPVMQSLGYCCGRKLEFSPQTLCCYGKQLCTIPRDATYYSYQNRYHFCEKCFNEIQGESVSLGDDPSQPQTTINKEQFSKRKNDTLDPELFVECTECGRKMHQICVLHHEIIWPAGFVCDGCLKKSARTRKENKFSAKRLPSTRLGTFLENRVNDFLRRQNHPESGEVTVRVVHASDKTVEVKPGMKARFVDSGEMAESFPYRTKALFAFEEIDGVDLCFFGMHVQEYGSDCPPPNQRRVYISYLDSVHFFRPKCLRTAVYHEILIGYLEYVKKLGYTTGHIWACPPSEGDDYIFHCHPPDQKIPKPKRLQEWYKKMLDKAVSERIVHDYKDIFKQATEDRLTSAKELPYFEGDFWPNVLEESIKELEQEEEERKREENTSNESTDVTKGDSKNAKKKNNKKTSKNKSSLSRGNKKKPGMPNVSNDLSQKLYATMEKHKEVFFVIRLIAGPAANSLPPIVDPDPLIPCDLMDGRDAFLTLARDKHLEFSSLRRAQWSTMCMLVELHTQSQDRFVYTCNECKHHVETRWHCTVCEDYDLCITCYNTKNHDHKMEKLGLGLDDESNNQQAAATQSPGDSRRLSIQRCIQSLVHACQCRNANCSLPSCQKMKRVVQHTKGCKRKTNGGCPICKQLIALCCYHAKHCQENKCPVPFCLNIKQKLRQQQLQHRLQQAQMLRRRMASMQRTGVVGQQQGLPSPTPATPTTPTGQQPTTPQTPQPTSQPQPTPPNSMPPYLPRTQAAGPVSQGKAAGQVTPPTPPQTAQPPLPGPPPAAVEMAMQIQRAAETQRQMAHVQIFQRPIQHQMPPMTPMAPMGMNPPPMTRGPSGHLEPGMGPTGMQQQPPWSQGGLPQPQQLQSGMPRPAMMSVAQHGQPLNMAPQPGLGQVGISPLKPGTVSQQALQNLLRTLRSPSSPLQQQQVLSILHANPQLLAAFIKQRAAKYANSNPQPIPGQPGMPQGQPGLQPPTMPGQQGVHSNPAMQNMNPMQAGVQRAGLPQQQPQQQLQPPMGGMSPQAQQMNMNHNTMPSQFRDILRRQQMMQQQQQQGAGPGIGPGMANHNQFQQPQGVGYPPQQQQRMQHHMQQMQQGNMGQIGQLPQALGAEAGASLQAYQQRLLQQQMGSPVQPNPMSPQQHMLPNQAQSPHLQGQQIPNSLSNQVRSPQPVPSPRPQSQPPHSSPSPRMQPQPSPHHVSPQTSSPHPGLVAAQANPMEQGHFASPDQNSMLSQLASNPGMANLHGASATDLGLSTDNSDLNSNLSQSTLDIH

Molecular target: phosphorylated Stat3 (human (endogenous in LN229 and 229R)) (UniProt P40763)
Experiment: co-IP; lysates (IP lysis buffer) of LN229, 229R, 229R Scra and 229R KD_lnc (lnc-TALC knock-down) cells incubated with 5 µg anti-p-Stat3 or anti-p300 overnight at 4 °C, protein A agarose beads, western blot for the other protein; both directions

For “histone acetyltransferase p300 (from UniProt Q09472 1-2414)”, which binding is on record?
The binding was “binds”.
